The values that follow come from the supplement of paper PMC12823440, “Inhibitors supercharge kinase turnover through native proteolytic circuits” (Nature, 2025).

The chains behind the UniProt entries cited, without tags or fusion partners.
UniProt Q00534, whole entry: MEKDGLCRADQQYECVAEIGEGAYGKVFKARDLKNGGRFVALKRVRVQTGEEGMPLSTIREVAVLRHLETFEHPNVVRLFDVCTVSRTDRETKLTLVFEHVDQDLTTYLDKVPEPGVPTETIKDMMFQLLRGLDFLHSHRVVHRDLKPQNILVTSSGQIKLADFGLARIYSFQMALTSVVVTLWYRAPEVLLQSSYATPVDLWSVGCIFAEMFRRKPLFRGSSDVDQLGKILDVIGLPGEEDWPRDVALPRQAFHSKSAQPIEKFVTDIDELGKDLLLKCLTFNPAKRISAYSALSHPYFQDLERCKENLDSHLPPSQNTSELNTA

The other results are listed elsewhere or left out. Hit calls seldom repeat between salt and free forms of one compound.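 In K562 cells expressing nanoluciferase-fused kinases, luminescence was recorded at 4 h intervals between 2 and 18 h, normalized as percent of control with DMSO at 100% and a positive control at 0%. A significant (2 sigma) signal drop marks a time point as decreased. The authors' rule for a hit is not shown and takes in more than the number of time points.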

This assay deals with CDK6 (UniProt Q00534). In words: kinase-Nluc reporter destabilization hit call (1 = scored as downregulated) (binary); higher = compound decreases kinase abundance. Particulars: K562; 2-18 h.
For `CC(C)CCN1c2nc(Nc3cc(F)c(O)c(F)c3)ncc2N(C)C(=O)C1C` (stereo not given) (2.5 µM), the “kinase-Nluc reporter destabilization hit call” value was inactive: 0.

On to `CC(C)=CC[C@@H](O)C1=CC(=O)c2c(O)ccc(O)c2C1=O` [Shikonin] (10 µM), for which the “kinase-Nluc reporter destabilization hit call” value was inactive: 0.

Take `CCC(=O)Nc1cccc(Oc2nc(Nc3ccc(N4CCN(C)CC4)cc3OC)ncc2Cl)c1` (10 µM): the “kinase-Nluc reporter destabilization hit call” value is inactive: 0.

In the case of `CC(C)=CCC/C(C)=C/CC/C(C)=C/C=C/C(C)=C/C(=O)O` [Peretinoin] (10 µM), the “kinase-Nluc reporter destabilization hit call” value was inactive: 0.

Regarding `COc1ccc2c(Oc3ccc4c(C(=O)Nc5ccccc5N)cccc4c3)ccnc2c1` [Chiauranib] (10 µM), the “kinase-Nluc reporter destabilization hit call” value is inactive: 0.

Turning to `Cc1nn(C)cc1-c1nc2c(N3CCN(Cc4ccc(Cl)cc4)CC3)c(Cl)cnc2[nH]1` (10 µM), the “kinase-Nluc reporter destabilization hit call” value is inactive: 0.

Regarding `CNC(=O)c1cc2c(Oc3ccc(NC(=O)C4(C(=O)Nc5ccc(F)cc5)CC4)cc3)ccnc2cc1OC` (2.5 µM), the “kinase-Nluc reporter destabilization hit call” value was inactive: 0.

In the case of `O=C(Nc1cccnc1)c1cc(-c2ccnc(F)c2)ccc1OCc1ccccc1` (10 µM), the “kinase-Nluc reporter destabilization hit call” value was inactive: 0.

In the case of `CN(C)c1ccc(-c2nc3ncc(Cl)c(N4CCN(CC(=O)Nc5nccs5)CC4)c3[nH]2)cc1` (2 µM), the “kinase-Nluc reporter destabilization hit call” value is inactive: 0.

For `Cc1cc(C(=O)NC(C)(C)C)cc(C#Cc2ccc3c4c(oc3c2)C(C)(C)c2cc(NS(C)(=O)=O)ccc2C4=O)n1` (10 µM), the “kinase-Nluc reporter destabilization hit call” value is inactive: 0.

Take `O=C(O)c1cc(N(Cc2ccccc2O)Cc2cc(O)ccc2O)ccc1O` [Lavendustin A] (10 µM): the “kinase-Nluc reporter destabilization hit call” value was inactive: 0.

In the case of `C[C@@H](Nc1ncnc2[nH]c(-c3ccc(O)cc3)cc12)c1ccccc1` (2.5 µM), the “kinase-Nluc reporter destabilization hit call” value is inactive: 0.

Consider `O=C(O)c1ccc(/C=C/S(=O)(=O)Cc2ccc(Cl)cc2)cc1` [Recilisib] (10 µM), for which the “kinase-Nluc reporter destabilization hit call” value is inactive: 0.

On to `Nc1nc(NCCNc2ncc(-n3ccnc3)c(-c3ccc(Cl)cc3Cl)n2)ccc1[N+](=O)[O-]` (2.5 µM), for which the “kinase-Nluc reporter destabilization hit call” value is inactive: 0.

As for `Cc1cnc(NC(=O)c2cc(Oc3cnc(C(=O)N(C)C)nc3)c3cc(C)oc3c2)cn1` (10 µM), the “kinase-Nluc reporter destabilization hit call” value is inactive: 0.

For `CNC(=O)CNc1cnc2ccc(-c3ccc(OC)c(OC)c3)cc2n1` (10 µM), the “kinase-Nluc reporter destabilization hit call” value was inactive: 0.

For `N[C@@H]1CCCN(c2c(/C=C3\SC(=O)NC3=O)cccc2-c2ccccc2)C1` (10 µM), the “kinase-Nluc reporter destabilization hit call” value was inactive: 0.

For the compound `CO[C@H]1C[C@@H]2CC[C@@H](C)[C@@](O)(O2)C(=O)C(=O)N2CCCC[C@H]2C(=O)O[C@H]([C@H](C)C[C@@H]2CC[C@@H](OC(=O)C(C)(CO)CO)[C@H](OC)C2)CC(=O)[C@H](C)/C=C(\C)[C@@H](O)[C@@H](OC)C(=O)[C@H](C)C[C@H](C)/C=C/C=C/C=C/1C` [Temsirolimus] (2.5 µM), the “kinase-Nluc reporter destabilization hit call” value was inactive: 0.

`COc1cc2nccc(Oc3ccc(NC(=O)c4cn(C(C)C)c(=O)n(-c5ccc(F)cc5)c4=O)cc3F)c2cc1OC` (0.5 µM): the “kinase-Nluc reporter destabilization hit call” value was inactive: 0.

In the case of `C=C1CCC[C@]2(C)C=C3OC(=O)C(C)=C3C[C@@H]12` [Atractylenolide I] (10 µM), the “kinase-Nluc reporter destabilization hit call” value was inactive: 0.

With `C=CC(=O)Nc1cc(Nc2nccc(-c3cn(C)c4ccccc34)n2)c(OC)cc1OCCN(C)C` [Rezivertinib] (2.5 µM), the “kinase-Nluc reporter destabilization hit call” value was active: 1.

For `C=C1C(=O)[C@@]23[C@H](O)C[C@@H]4C(C)(C)C(=O)CC[C@@]4(C)[C@@H]2CC[C@@H]1[C@H]3O` [Glaucocalyxin A] (2.5 µM), the “kinase-Nluc reporter destabilization hit call” value was inactive: 0.

For the compound `NC1(C(=O)NCCCn2cc(-c3ccc(OC(F)(F)F)cc3)c3cc(CN4CCN(Cc5c(Cl)cccc5Cl)CC4)ccc32)CCNCC1` (2.5 µM), the “kinase-Nluc reporter destabilization hit call” value is inactive: 0.

In the case of `CC(Sc1nc2c(cnn2-c2cccc(Cl)c2)c(=O)[nH]1)C(N)=O` (stereo not given) (10 µM), the “kinase-Nluc reporter destabilization hit call” value is inactive: 0.

As for `Fc1ccc2[nH]ccc2c1-c1nc(N2CCOCC2)c2sc(CN3CCN(CC4CC4)CC3)cc2n1` (10 µM), the “kinase-Nluc reporter destabilization hit call” value is inactive: 0.

Take `Cn1cc(-c2cc(Oc3cc(F)c(NC(=O)C4(C(=O)Nc5ccccc5)CC4)cc3F)ccn2)cn1` (2.5 µM): the “kinase-Nluc reporter destabilization hit call” value was inactive: 0.

With `COc1ccc(S(=O)(=O)Nc2cc(-c3c(O)ccc4ccccc34)c(O)c3ccccc23)cc1` (10 µM), the “kinase-Nluc reporter destabilization hit call” value is inactive: 0.

`Cn1c2cc([S+](C)[O-])sc2c2cnn(Cc3cccc(N)c3)c(=O)c21` (stereo not given) (2.5 µM): the “kinase-Nluc reporter destabilization hit call” value is inactive: 0.

Turning to `O=C(NCCO)c1cc(C(=O)NCCO)cc(C(=O)NCCO)c1` (10 µM), the “kinase-Nluc reporter destabilization hit call” value is inactive: 0.

`N#Cc1cnc2c(Cl)cc(NCc3cn(CCN4CCCCCC4)nn3)cc2c1Nc1ccc(F)c(Cl)c1` [Cot inhibitor-1] (10 µM): the “kinase-Nluc reporter destabilization hit call” value is inactive: 0.
